Consider ten compounds from the supplement of paper PMC4635364.

Each structure is given as a SMILES string. Counter-ions that a name gives are not always drawn. The list shows a part of the results. Repeats in this data set agree poorly, so a single value says little.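 ReNCell VM, a human fetal ventral-midbrain neural progenitor line, was differentiated without mitogens. Blinded raters scored images stained for doublecortin (early neurons) or tyrosine hydroxylase (dopaminergic neurons) against untreated wells (0 = no change). Scores were averaged across repeats and both raters, and compounds averaging 2 or more were selected as hits for retesting.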

In experiment [1] the test system is ReNCell VM. Kind of experiment: neuronal differentiation score (DCX+ cell fraction vs untreated, manual image score) (score (-3 to 3)); higher = more neuronal differentiation. The conditions noted are these: 2 uM, 2 weeks.
In experiment [2] the test system is ReNCell VM. The experiment is described as follows: dopaminergic neuron differentiation score (TH+ cell fraction vs untreated, manual image score) (score (0 to 3)); higher = more TH+ dopaminergic neuron differentiation. The conditions noted are these: 2 uM, 4 weeks, BDNF 10 ng/ml + GDNF 10 ng/ml.

Take `C[N+]1(C)CCc2cc3c(cc2[C@H]1[C@@H]1OC(=O)c2c1ccc1c2OCO1)OCO3` [(-)-Bicuculline methiodide]: the neuronal differentiation score in the experiment with ReNCell VM [1] (library: Tocriscreen) is inactive: 0. The “dopaminergic neuron differentiation score” value in the experiment on ReNCell VM [2] (library: Tocriscreen) is inactive: 0.

As for `Oc1noc2c1CCNC2`, in the experiment with ReNCell VM [1] (library: Spectrum), the neuronal differentiation score was inactive: 0. The “dopaminergic neuron differentiation score” value with ReNCell VM [2] (library: Spectrum) is inactive: 0.

`N[C@H](CO)Cc1ccccc1`: the neuronal differentiation score with ReNCell VM [1] (library: Spectrum) is inactive: 0. Further, in the experiment on ReNCell VM [2] (library: Spectrum), the “dopaminergic neuron differentiation score” value was inactive: 0.

For the compound `NCC1(CC(=O)O)CCCCC1`, in the experiment on ReNCell VM [1] (library: Spectrum), the neuronal differentiation score was inactive: 0. The “dopaminergic neuron differentiation score” value with ReNCell VM [2] (library: Spectrum) was inactive: 0.

Turning to `Ic1ccccc1CNC1C2CCN(CC2)C1C(c1ccccc1)c1ccccc1` [L-703,606 oxalate], the neuronal differentiation score in the experiment with ReNCell VM [1] (library: LOPAC) was inactive: 0. Also, in the experiment with ReNCell VM [2] (library: LOPAC), the “dopaminergic neuron differentiation score” value is inactive: 0.

Consider `CCCN1CCC[C@H](c2cccc(O)c2)C1` [R(+)-3PPP hydrochloride], for which the neuronal differentiation score in the experiment with ReNCell VM [1] (library: LOPAC) is inactive: 0. The “dopaminergic neuron differentiation score” value in the experiment with ReNCell VM [2] (library: LOPAC) was inactive: 0.

As to `NCC#Cc1ccccc1` [3-Phenylpropargylamine hydrochloride], the neuronal differentiation score in the experiment with ReNCell VM [1] (library: LOPAC) was inactive: 0. Also, the “dopaminergic neuron differentiation score” value in the experiment on ReNCell VM [2] (library: LOPAC) was inactive: 0.

For the compound `CC1=NCCc2c1[nH]c1cc(O)ccc21` [Harmalol hydrochloride dihydrate], the neuronal differentiation score with ReNCell VM [1] (library: Phytochemical) was inactive: 0. The “dopaminergic neuron differentiation score” value in the experiment with ReNCell VM [2] (library: Phytochemical) is inactive: 0.

With `C[C@H]1CC[C@]2(NC1)O[C@H]1C[C@H]3[C@@H]4CC[C@H]5C[C@@H](O[C@@H]6O[C@H](CO)[C@H](O[C@@H]7O[C@H](CO)[C@@H](O)[C@H](O[C@@H]8OC[C@@H](O)[C@H](O)[C@H]8O)[C@H]7O[C@@H]7O[C@H](CO)[C@@H](O)[C@H](O)[C@H]7O)[C@H](O)[C@H]6O)CC[C@]5(C)[C@H]4CC[C@]3(C)[C@H]1[C@@H]2C` [Tomatine], in the experiment with ReNCell VM [1] (library: Phytochemical), the neuronal differentiation score is inactive: 0. In addition, in the experiment with ReNCell VM [2] (library: Phytochemical), the “dopaminergic neuron differentiation score” value was inactive: 0.

Take `CCNC(=O)[C@H]1O[C@@H](n2cnc3c(N)ncnc32)[C@H](O)[C@@H]1O` [5'-N-Ethylcarboxamidoadenosine]: the neuronal differentiation score in the experiment on ReNCell VM [1] (library: LOPAC) was inactive: -3. Moreover, in the experiment with ReNCell VM [2] (library: LOPAC), the “dopaminergic neuron differentiation score” value was inactive: 0.
